Test results reported in article PMC12135451.
Results are given in words; binding and its absence hold for the method and conditions named. Binding seen in cells or lysates may run through a third protein. Some binding calls cover weakened binding; strength is not graded here. Sequences can lack the tags named with a protein.

The chains behind the UniProt entries cited, without tags or fusion partners.
UniProt Q96EP0: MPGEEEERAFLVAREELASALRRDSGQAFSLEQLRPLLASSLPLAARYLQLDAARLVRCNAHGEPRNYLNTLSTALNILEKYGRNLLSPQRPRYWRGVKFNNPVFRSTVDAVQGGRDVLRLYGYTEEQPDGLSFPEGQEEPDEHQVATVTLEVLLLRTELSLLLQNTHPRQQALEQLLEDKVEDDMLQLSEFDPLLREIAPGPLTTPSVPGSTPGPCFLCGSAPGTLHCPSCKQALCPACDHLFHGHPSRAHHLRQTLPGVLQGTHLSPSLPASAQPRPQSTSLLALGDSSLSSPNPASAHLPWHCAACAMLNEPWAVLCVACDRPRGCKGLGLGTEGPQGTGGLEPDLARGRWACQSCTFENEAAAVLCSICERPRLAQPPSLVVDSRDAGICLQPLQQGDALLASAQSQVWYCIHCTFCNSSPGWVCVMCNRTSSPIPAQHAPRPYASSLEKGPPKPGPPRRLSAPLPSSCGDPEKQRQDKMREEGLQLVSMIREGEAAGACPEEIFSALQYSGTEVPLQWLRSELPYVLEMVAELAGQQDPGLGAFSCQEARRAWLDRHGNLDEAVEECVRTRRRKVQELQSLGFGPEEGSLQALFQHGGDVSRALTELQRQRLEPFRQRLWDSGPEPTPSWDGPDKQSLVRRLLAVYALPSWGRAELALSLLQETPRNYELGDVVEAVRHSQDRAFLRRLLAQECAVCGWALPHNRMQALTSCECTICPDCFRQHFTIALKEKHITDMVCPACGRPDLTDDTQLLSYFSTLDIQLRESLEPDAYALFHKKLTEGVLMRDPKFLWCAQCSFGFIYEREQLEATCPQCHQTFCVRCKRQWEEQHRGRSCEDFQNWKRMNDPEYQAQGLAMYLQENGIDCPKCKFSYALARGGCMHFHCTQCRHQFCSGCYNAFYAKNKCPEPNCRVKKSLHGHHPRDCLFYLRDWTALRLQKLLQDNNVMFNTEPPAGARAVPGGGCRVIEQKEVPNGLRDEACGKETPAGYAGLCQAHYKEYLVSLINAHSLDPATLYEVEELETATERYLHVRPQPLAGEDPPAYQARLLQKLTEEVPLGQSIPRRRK
UniProt Q13257: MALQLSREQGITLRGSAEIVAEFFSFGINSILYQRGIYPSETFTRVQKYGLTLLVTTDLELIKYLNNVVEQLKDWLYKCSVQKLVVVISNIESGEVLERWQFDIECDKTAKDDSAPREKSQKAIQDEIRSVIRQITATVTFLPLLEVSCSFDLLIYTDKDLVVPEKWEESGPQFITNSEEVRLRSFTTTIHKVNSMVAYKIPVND
UniProt P53350: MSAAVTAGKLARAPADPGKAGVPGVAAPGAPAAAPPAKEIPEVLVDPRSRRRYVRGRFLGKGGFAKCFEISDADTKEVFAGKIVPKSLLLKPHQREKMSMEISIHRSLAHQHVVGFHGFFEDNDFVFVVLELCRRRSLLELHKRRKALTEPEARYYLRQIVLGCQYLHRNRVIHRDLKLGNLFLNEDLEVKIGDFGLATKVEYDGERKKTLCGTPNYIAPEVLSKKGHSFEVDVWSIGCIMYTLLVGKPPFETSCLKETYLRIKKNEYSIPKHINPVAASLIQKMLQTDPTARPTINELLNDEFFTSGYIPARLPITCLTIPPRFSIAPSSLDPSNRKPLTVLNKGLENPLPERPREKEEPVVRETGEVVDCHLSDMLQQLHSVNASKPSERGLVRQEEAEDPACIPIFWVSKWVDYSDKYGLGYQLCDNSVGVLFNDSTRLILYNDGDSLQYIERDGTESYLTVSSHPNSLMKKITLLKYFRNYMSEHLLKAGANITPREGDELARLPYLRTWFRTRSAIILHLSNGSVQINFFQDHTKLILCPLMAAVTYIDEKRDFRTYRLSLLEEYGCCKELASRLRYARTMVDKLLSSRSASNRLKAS

T1: Flag-SHARPIN (UniProt Q9H0F6)
T1 sequence: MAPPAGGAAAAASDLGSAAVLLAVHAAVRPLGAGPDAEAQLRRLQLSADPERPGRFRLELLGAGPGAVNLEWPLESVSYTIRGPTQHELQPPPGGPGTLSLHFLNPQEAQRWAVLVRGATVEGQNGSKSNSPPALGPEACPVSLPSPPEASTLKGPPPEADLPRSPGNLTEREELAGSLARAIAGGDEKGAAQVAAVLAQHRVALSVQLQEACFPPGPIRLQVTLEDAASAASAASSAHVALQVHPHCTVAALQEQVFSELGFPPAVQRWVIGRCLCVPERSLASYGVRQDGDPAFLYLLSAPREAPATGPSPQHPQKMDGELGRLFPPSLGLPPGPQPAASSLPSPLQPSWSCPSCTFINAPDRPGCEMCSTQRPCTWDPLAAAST


Columns and labels:
[1] = molecular target: Flag-HOIP (human) (UniProt Q96EP0); experiment: co-IP; asynchronous 293T cells transfected with Flag- and HA-tagged constructs; anti-Flag and/or anti-HA IP; lysis in EBC buffer (50 mM Tris pH 7.5, 120 mM NaCl, 0.5% NP-40), four washes with NETN buffer; immunoblot
[2] = molecular target: T1, Flag-SHARPIN; experiment: as above
[3] = molecular target: HA-MAD2 (human) (UniProt Q13257); experiment: co-IP; 293T cells transfected with Myc-p31^comet and HA-PLK1 or HA-MAD2, with or without His-UB and Flag-HOIP; anti-HA IP; immunoblot
[4] = molecular target: HA-PLK1 (UniProt P53350); experiment: as above

Row | binding [1] | binding [2] | binding [3] | binding [4] | Binder
1 | no binding | – | – | – | HA-TRIP13 (enzyme, UniProt Q3UA06 1-432) MDEAVGDLKQALPCVAESPAVHVEVLQRSGSTAKKEDIKSSVYRLLNRHNIVFGDYVWTEFDDPFLSRNVQSVSIVDTELKAKDPQPIDLSACTIALHIFQLNEEGPSSENLDEETENIIAASHWVLPAAEFHGLWDSLVYDVEVKSHLLDYVMTTVLFSDKNVDSNLITWNRVVLLHGPPGTGKTSLCKALAQKLTIRLSSRYRYGQLIEINSHSLFSKWFSESGKLVTKMFQKIQDLIDDKEALVFVLIDEVESLTAARNACRAGAEPSDAIRVVNAVLTQIDQIKRHSNVVILTTSNITEKIDVAFVDRADIKQYIGPPSAAAIFKIYLSCLEELMKCQIIYPRQQLLTLRELEMIGFIENNVSKLSLLLSEISRKSEGLSGRVLRKLPFLAHALYIQAPSVTIEGFLQALSLAVDKQFEEKKKLSAYV
2 | binds | no binding | – | – | HA-p31^comet (protein, UniProt Q15013 1-274) MAAPEAEVLSSAAVPDLEWYEKSEETHASQIELLETSSTQEPLNASEAFCPRDCMVPVVFPGPVSQEGCCQFTCELLKHIMYQRQQLPLPYEQLKHFYRKPSPQAEEMLKKKPRATTEVSSRKCQQALAELESVLSHLEDFFARTLVPRVLILLGGNALSPKEFYELDLSLLAPYSVDQSLSTAACLRRLFRAIFMADAFSELQAPPLMGTVVMAQGHRNCGEDWFRPKLNYRVPSRGHKLTVTLSCGRPSIRTTAWEDYIWFQAPVTFKGFRE
3 | – | – | binds | binds | Myc-p31^comet (protein, UniProt Q15013 1-274) MAAPEAEVLSSAAVPDLEWYEKSEETHASQIELLETSSTQEPLNASEAFCPRDCMVPVVFPGPVSQEGCCQFTCELLKHIMYQRQQLPLPYEQLKHFYRKPSPQAEEMLKKKPRATTEVSSRKCQQALAELESVLSHLEDFFARTLVPRVLILLGGNALSPKEFYELDLSLLAPYSVDQSLSTAACLRRLFRAIFMADAFSELQAPPLMGTVVMAQGHRNCGEDWFRPKLNYRVPSRGHKLTVTLSCGRPSIRTTAWEDYIWFQAPVTFKGFRE
